Results taken from US20070059272A1 (priority 2005, published 2007).

System: MDCK cells
Format: cell-based

In the case of `CN1CC[C@]23c4c5ccc(O)c4O[C@H]2[C@@H](O)C=C[C@H]3[C@H]1C5` [morphine], the “TEER of MDCK cells following apical exposure to PA27853 plus opioid” value is reported as “more profound decrease in the TEER”.
